This is one part of the list.

This test deals with T1, OsSMF1 (Oryza sativa, UniProt Q6ZLB0 1-436).
T1 sequence: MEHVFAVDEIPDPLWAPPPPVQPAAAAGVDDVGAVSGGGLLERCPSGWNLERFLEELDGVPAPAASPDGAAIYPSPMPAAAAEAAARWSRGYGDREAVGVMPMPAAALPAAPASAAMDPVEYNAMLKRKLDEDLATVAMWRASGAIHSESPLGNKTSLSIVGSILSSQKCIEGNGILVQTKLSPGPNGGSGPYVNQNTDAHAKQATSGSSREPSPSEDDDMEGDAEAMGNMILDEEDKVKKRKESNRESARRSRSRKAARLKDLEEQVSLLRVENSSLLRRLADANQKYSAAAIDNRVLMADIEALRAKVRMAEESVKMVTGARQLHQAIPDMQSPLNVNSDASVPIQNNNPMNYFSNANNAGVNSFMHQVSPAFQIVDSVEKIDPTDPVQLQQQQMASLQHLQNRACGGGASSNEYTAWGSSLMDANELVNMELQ
Nature of the test: protein-binding microarray (RPBM); PBS, 2% BSA, 51.3 ng/ul salmon testes DNA, 50 uM zinc acetate, 200 nM TF, 25 C, 1 h; high values mean tight binding. The note with it: protein: recombinant; tags: N-terminal polyhistidine and DsRed monomer fusion (pET32a); chain copies: 2; label: CyDye5-dUTP incorporated in the synthesized complementary strand; 3' TTTTT single-stranded linker to array surface; dsDNA, one strand shown. Summed up:
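In PBS with 2% BSA, salmon testes DNA and 50 µM zinc acetate, 200 nM protein was incubated on a custom Agilent array at 25 °C for 1 h and then washed off. The array had been made double-stranded by primer extension with Cy5-dUTP and blocked with 2% BSA. The proteins were transcription factors fused N-terminally to polyhistidine and DsRed, expressed in E. coli BL21-CodonPlus and purified on Ni–NTA. The binding signal is per-feature fluorescence intensity (arbitrary units) from an Axon 4000B scanner.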
With “ATCAGCAACAATCAGGCTCCTGTGCGGTAAGTCCAACATTCGGAGTCACCTAGTGCAG”, the binding signal is 6700 fluorescence intensity (a.u.). The same measure for “GTCTTAATGGGAGAAAGTTACAAGTTGACACGTTAGAAGACGGAGTCACCTAGTGCAG”: 3540 fluorescence intensity (a.u.); for “GGACCCTTAAACTGGTTTACCACGTATCGTAAAGATGCTACGGAGTCACCTAGTGCAG”: 3910 fluorescence intensity (a.u.); for “TTGCATCTAGCCACGTCGTCATACACGGGTAGCAGTAGCACGGAGTCACCTAGTGCAG”: 8530 fluorescence intensity (a.u.). As to “GTTTAGACAGCTCCACAACTCCACTCCAGACTCAACTCCTCGGAGTCACCTAGTGCAG”, the binding signal is 26700 fluorescence intensity (a.u.). On to “CACCAGCCTCCAGCTATTGCTATCCAGTCCCGCTCCGCTACGGAGTCACCTAGTGCAG”, for which the binding signal is 3290 fluorescence intensity (a.u.).

As for “GTGTGTGGTATATGCGCACCCTCTAATCCACTTGTTGCTTCGGAGTCACCTAGTGCAG”, the binding signal is 4110 fluorescence intensity (a.u.). The result for “CACGCCGCCGGCCGACGCCACCAGCAACTGGCTGTGGCAGCGGAGTCACCTAGTGCAG” reads 3190 fluorescence intensity (a.u.); that for “AGCCGACGAGACGGGTGGTGGGGCGGTGGCGGCCGAGGATCGGAGTCACCTAGTGCAG”, 4420 fluorescence intensity (a.u.). With “CCAACTTTTCCATCACATCGTTCCAATTTCAACCAAACTTCGGAGTCACCTAGTGCAG”, the binding signal is 21900 fluorescence intensity (a.u.). The same measure for “CTTGGGGATTTAGTGCTCTATGATGCAGATGGAACACTTGCGGAGTCACCTAGTGCAG”: 3190 fluorescence intensity (a.u.); for “TTTAAGAAGGGAGATAATTATAGGGGTGGCGTGTGCACTTCGGAGTCACCTAGTGCAG”: 3420 fluorescence intensity (a.u.); for “TTATTATATATGCGCATGTGAATTAAAATGACTGGGCTGCCGGAGTCACCTAGTGCAG”: 4960 fluorescence intensity (a.u.). The result for “CTCTCCCGCCGCTGGCGCCACCTCTGGGCCTCCGCGCCCTCGGAGTCACCTAGTGCAG” reads 3820 fluorescence intensity (a.u.); that for “GGTCACGCAAAGCCAAAGCATCTCCCTGTCACGTACCCGTCGGAGTCACCTAGTGCAG”, 3790 fluorescence intensity (a.u.); that for “GTGGAGCAGGCGGACGTGTCGGGGTCGAAGAGCGCCGGGACGGAGTCACCTAGTGCAG”, 4870 fluorescence intensity (a.u.).

Regarding “AGGAAACGTGTGTTCCGTTCGCCGCGTCCGGAGCCCGCGGCGGAGTCACCTAGTGCAG”, the binding signal is 3330 fluorescence intensity (a.u.). The result for “AACACAACCCAACCAATCGTTTACCGCCACGTGCACGCCACGGAGTCACCTAGTGCAG” reads 4920 fluorescence intensity (a.u.).

Turning to “GGTTCTTAGTTTGCTGCGTTTATAGCAAACGTGTACACGGCGGAGTCACCTAGTGCAG”, the binding signal is 4430 fluorescence intensity (a.u.).

In the case of “AGTAGTTTGGTGTATTAGTGATGGTTAACTGCTCTGATCTCGGAGTCACCTAGTGCAG”, the binding signal is 3260 fluorescence intensity (a.u.). The same measure for “CAATCATAATATATTAGCTGGCAGGTTCAAATGGGATTTTCGGAGTCACCTAGTGCAG”: 3160 fluorescence intensity (a.u.); for “TATTGGAACTTTAGTGACCGTTGCGTAGACTCATATAAGACGGAGTCACCTAGTGCAG”: 3470 fluorescence intensity (a.u.). The same measure for “GCATTGGCAGGAATAATTTGGTACTGTAGTATGGTCCATCCGGAGTCACCTAGTGCAG”: 22500 fluorescence intensity (a.u.); for “GCCGCGCGGCGGAGGCGGAAGCGAGCGTCACGTTGCCCACCGGAGTCACCTAGTGCAG”: 3510 fluorescence intensity (a.u.); for “TCCATCCCCGCGTGGATTTGACCGGGCGGCGTGGATTCGGCGGAGTCACCTAGTGCAG”: 3320 fluorescence intensity (a.u.). In the case of “CATGTTCGAAGAGACCAGCCCACATATTAGTTACGGCCTACGGAGTCACCTAGTGCAG”, the binding signal was 20400 fluorescence intensity (a.u.). The same measure for “CATAATTTTCGTGTTTGTCCAACATGACATCATTTTCTTGCGGAGTCACCTAGTGCAG”: 3870 fluorescence intensity (a.u.); for “GAGTAGTGTACACGCCGGCACGCGCAGCTTGCATTGCAGCCGGAGTCACCTAGTGCAG”: 3350 fluorescence intensity (a.u.).

Regarding “CAGCAATCTCGGGCGGCGGCGGCGGCGAGGAGGAGGAAGTCGGAGTCACCTAGTGCAG”, the binding signal is 34000 fluorescence intensity (a.u.). The same measure for “ATACTATTAAACTTGCTCTTACACGTGTCAGGCGGGCCCACGGAGTCACCTAGTGCAG”: 19300 fluorescence intensity (a.u.). The result for “CCGCTCTTGGGCCTCACCACGCGGCACCACGGGACGGAAGCGGAGTCACCTAGTGCAG” reads 3860 fluorescence intensity (a.u.). Take “CATTTATGATCAATACTCGACAGCTCATCTGTACACAAAGCGGAGTCACCTAGTGCAG”: the binding signal is 4950 fluorescence intensity (a.u.). The result for “CGCCGCCGGCCGCGCCGCCGCTGCCGCCGTCGCCCCGCGCCGGAGTCACCTAGTGCAG” reads 3450 fluorescence intensity (a.u.).

Take “GTGATGGTGGTGTGGATCGGTATGGTGTCGCCATCCATGACGGAGTCACCTAGTGCAG”: the binding signal was 3550 fluorescence intensity (a.u.).

“GCCGAGGAAACCCTAGCGCCGCATCCGCCTCCTATATATTCGGAGTCACCTAGTGCAG”: the binding signal is 3540 fluorescence intensity (a.u.). The same measure for “TACATATAATTGAGGGAGCCAACGTGGACTTATTCCTTTTCGGAGTCACCTAGTGCAG”: 4090 fluorescence intensity (a.u.); for “TAAAGTCTTAGCTTGAAATTACTCTTGCCATGTGTCATCGCGGAGTCACCTAGTGCAG”: 5290 fluorescence intensity (a.u.). For the sequence “GCTAACTCGTCACGTCATTAGAAACCGTACACAATATTGTCGGAGTCACCTAGTGCAG”, the binding signal was 5240 fluorescence intensity (a.u.).

“TGGAATACTTATAAACCCTGCATGACTCACTTGATTGGTACGGAGTCACCTAGTGCAG”: the binding signal was 5880 fluorescence intensity (a.u.).

For the sequence “ATATGGGACCTGCTTTAGTTTTGTTGCCACGTAAACGCTTCGGAGTCACCTAGTGCAG”, the binding signal was 12100 fluorescence intensity (a.u.). The result for “GACGAAGCTCGACCTGTACTGCGCGGCCGTGGCTAAATCGCGGAGTCACCTAGTGCAG” reads 3180 fluorescence intensity (a.u.); that for “ATCCGCGCCTCACGCCACGTCAGCGATTCGCGTCTCCTCTCGGAGTCACCTAGTGCAG”, 14900 fluorescence intensity (a.u.).

These data come from publication PMC7819943, “Rice protein-binding microarrays: a tool to detect cis-acting elements near promoter regions in rice”.
